{
  "source": "PubChem BioAssay AID248",
  "about": "(DTP/NCI, 2004)",
  "tested_on": "L1210 leukemia ip in BDF1 mice, survival T/C",
  "assay": "NCI In Vivo Anticancer Drug Screen. Data for tumor model L1210 Leukemia (intraperitoneal) in B6D2F1 (BDF1) mice",
  "details": "T/C endpoint: mean survival time, higher T/C = longer survival",
  "key": {"[1]": {"details": "dose: 100.0 mg/kg/injection, schedule: Q01DX009 (ip), vehicle: saline"}, "[2]": {"details": "dose: 400.0 mg/kg/injection, schedule: Q04DX002 (ip), vehicle: Klucel (hydroxypropylcellulose) (HPC)"}, "[3]": {"details": "dose: 400.0 mg/kg/injection, schedule: Q01DX009 (ip), vehicle: saline with Tween-80"}, "[4]": {"details": "dose: 200.0 mg/kg/injection, schedule: Q01DX009 (ip), vehicle: Klucel (hydroxypropylcellulose) (HPC)"}, "[5]": {"details": "dose: 400.0 mg/kg/injection, schedule: Q01DX009 (ip), vehicle: Klucel (hydroxypropylcellulose) (HPC)"}, "[6]": {"details": "dose: 400.0 mg/kg/injection, schedule: Q04DX003 (ip), vehicle: saline"}, "[7]": {"details": "dose: 400.0 mg/kg/injection, schedule: Q01DX001 (ip), vehicle: saline"}, "[8]": {"details": "dose: 200.0 mg/kg/injection, schedule: Q01DX009 (ip), vehicle: saline"}},
  "note": "The list does not hold the whole screen: it gathers tests that were run many times, whatever their T/C, doses with no T/C, and many T/C values between a quarter and a half above the control. Other doses and runs of a compound stand elsewhere. T/C: endpoint of the treated group in % of that of the vehicle group. Some doses have a count of surviving animals in place of a T/C: the source files T/C as zero there, which appears to mark a toxic dose or a test without result, not a measured value. Some doses without a T/C left all or most animals alive at the check, yet need not have been tolerated: the source hardly ever lists a survival T/C far under the control, and the zero likely stands for such cases as well. Survivors were counted at the toxicity check, usually on the fifth day, unless a day is given; later deaths do not show. Schedules are NCI's codes, taken here to give the interval after Q, in days (D) or hours (H), and the number of doses after X. Some entries were tested several times; the values are given in rising order. Some schedule codes hold Z or #, which are not explained here. For survival time, this PubChem deposit counts one and a half times the control or more as active, and values a quarter to a half above the control carry no call in these data; other NCI protocols may use other cut-offs.",
  "data": [
    {"molecule": "Cc1cncn1CC(=O)c1ccccc1", "values": [
      {"measurement": "survivor count", "setting": "[1]", "result": "0 of 3 and 1 of 6"},
      {"measurement": "survivor count", "setting": "dose: 100.0 mg/kg/injection, schedule: Q04DX002 (ip), vehicle: saline", "result": "3 of 6 and 2 of 3"},
      {"measurement": "survivor count", "setting": "dose: 200.0 mg/kg/injection, schedule: Q04DX002 (ip), vehicle: Klucel (hydroxypropylcellulose) (HPC)", "result": "0 of 6"},
      {"measurement": "survivor count", "setting": "dose: 200.0 mg/kg/injection, schedule: Q04DX002 (ip), vehicle: saline", "result": "0 of 3"},
      {"measurement": "survivor count", "setting": "[2]", "result": "0 of 6"},
      {"measurement": "survivor count", "setting": "dose: 400.0 mg/kg/injection, schedule: Q04DX002 (ip), vehicle: saline", "result": "0 of 3"}
    ]},
    {"molecule": "O=C1O/C(=C\\c2ccccc2)C(O)=C1c1ccccc1", "values": [
      {"measurement": "survivor count", "setting": "dose: 200.0 mg/kg/injection, schedule: Q01DX001 (ip), vehicle: saline with Tween-80", "result": "0 of 3"},
      {"measurement": "survivor count", "setting": "dose: 400.0 mg/kg/injection, schedule: Q01DX001 (ip), vehicle: saline with Tween-80", "result": "0 of 3"}
    ]},
    {"molecule": "CCCCC(c1nc2c(c3c1CCCC3)CCCC2)C(O)(C(F)(F)F)C(F)(F)F", "note": "(stereo not given)", "values": [
      {"measurement": "survivor count", "setting": "[3]", "result": "4 of 6"}
    ]},
    {"molecule": "CCCCCCCCCCCCCCCc1ccc(C(=O)C[n+]2ccccc2)cc1", "values": [
      {"measurement": "survivor count", "setting": "dose: 37.5 mg/kg/injection, schedule: Q01DX009 (ip), vehicle: saline with Tween-80", "result": "4 of 6"}
    ]},
    {"molecule": "O=C1c2cccc3cccc(c23)C(=O)N1CCCCCCCCN1C(=O)c2cccc3cccc(c23)C1=O", "values": [
      {"measurement": "survivor count", "setting": "[2]", "result": "2 of 3"}
    ]},
    {"molecule": "S=C1NCCCS1", "values": [
      {"measurement": "survivor count", "setting": "[4]", "result": "3 of 6"},
      {"measurement": "survivor count", "setting": "[5]", "result": "0 of 6"}
    ]},
    {"molecule": "C=NN=C(N)N", "values": [
      {"measurement": "survivor count", "setting": "dose: 1.5 mg/kg/injection, schedule: Q01DX Z (ip), vehicle: saline", "result": "6 of 6"},
      {"measurement": "survivor count", "setting": "dose: 60.0 mg/kg/injection, schedule: Q01DX Z (ip), vehicle: saline", "result": "0 of 6"},
      {"measurement": "survivor count", "setting": "dose: 60.0 mg/kg/injection, schedule: Q01DX Z (oral), vehicle: saline", "result": "3 of 6"},
      {"measurement": "survivor count", "setting": "dose: 120.0 mg/kg/injection, schedule: Q01DX Z (ip), vehicle: saline", "result": "0 of 6"},
      {"measurement": "survivor count", "setting": "dose: 120.0 mg/kg/injection, schedule: Q01DX Z (oral), vehicle: saline", "result": "3 of 6"}
    ]},
    {"molecule": "O=C(C[n+]1cccc2ccccc21)c1ccc(-c2ccccc2)cc1", "values": [
      {"measurement": "survivor count", "setting": "dose: 100.0 mg/kg/injection, schedule: Q01DX001 (ip), vehicle: Klucel (hydroxypropylcellulose) (HPC)", "result": "2 of 6"},
      {"measurement": "survivor count", "setting": "dose: 400.0 mg/kg/injection, schedule: Q01DX001 (ip), vehicle: Klucel (hydroxypropylcellulose) (HPC)", "result": "0 of 6"}
    ]},
    {"molecule": "N#CC(/C=C/c1ccco1)Nc1ccccc1C(N)=O", "note": "(stereo not given)", "values": [
      {"measurement": "survivor count", "setting": "[5]", "result": "0 of 6"}
    ]},
    {"molecule": "COc1cc(-c2nc(-c3ccc(N=Cc4ccc(N(CCOS(C)(=O)=O)CCOS(C)(=O)=O)cc4C)cc3)cs2)cc(OC)c1OC", "values": [
      {"measurement": "T/C", "setting": "dose: 100.0 mg/kg/injection, schedule: Q04DX003 (ip), vehicle: saline with Tween-80, evaluated on day 20", "result": "127 and 140 % of control"},
      {"measurement": "T/C", "setting": "dose: 100.0 mg/kg/injection, schedule: Q04DX003 (ip), vehicle: saline with Tween-80, evaluated on day 30", "result": "93 and 132 % of control"},
      {"measurement": "survivor count", "setting": "dose: 400.0 mg/kg/injection, schedule: Q04DX003 (ip), vehicle: saline with Tween-80", "result": "3 of 6"}
    ]},
    {"molecule": "Cc1csc(C)n1", "values": [
      {"measurement": "survivor count", "setting": "[3]", "result": "0 of 6"}
    ]},
    {"molecule": "CCCC(NC(=O)CCl)C(=O)O", "note": "(stereo not given)", "values": [
      {"measurement": "survivor count", "setting": "[6]", "result": "2 of 6"}
    ]},
    {"molecule": "Cc1cccc(CN)n1", "values": [
      {"measurement": "survivor count", "setting": "[6]", "result": "1 of 6"}
    ]},
    {"molecule": "Oc1ccc(O)c2c1C1c3ccccc3C2c2ccccc21", "values": [
      {"measurement": "survivor count", "setting": "[7]", "result": "6 of 6"}
    ]},
    {"molecule": "N#Cc1nc(C#N)c(C#N)nc1C#N", "values": [
      {"measurement": "survivor count", "setting": "dose: 100.0 mg/kg/injection, schedule: Q01DX009 (ip), vehicle: Klucel (hydroxypropylcellulose) (HPC)", "result": "0 of 6"},
      {"measurement": "survivor count", "setting": "[4]", "result": "0 of 6"},
      {"measurement": "survivor count", "setting": "[5]", "result": "0 of 6"}
    ]},
    {"molecule": "COc1c(Cl)cc([N+](=O)[O-])c(OC)c1[N+](=O)[O-]", "values": [
      {"measurement": "survivor count", "setting": "dose: 200.0 mg/kg/injection, schedule: Q01DX009 (ip), vehicle: acetone", "result": "0 of 6"},
      {"measurement": "survivor count", "setting": "dose: 400.0 mg/kg/injection, schedule: Q01DX001 (ip), vehicle: acetone", "result": "1 of 6"}
    ]},
    {"molecule": "CC(=O)NC(CSC(c1ccccc1)(c1ccccc1)c1ccccc1)C(=O)O", "note": "(stereo not given)", "values": [
      {"measurement": "survivor count", "setting": "[1]", "result": "4 of 8"},
      {"measurement": "survivor count", "setting": "[8]", "result": "0 of 8"}
    ]},
    {"molecule": "Cc1cc(C)c(O)c(CN(C)C)c1.[Cu+2]", "values": [
      {"measurement": "survivor count", "setting": "dose: 200.0 mg/kg/injection, schedule: Q01DX001 (ip), vehicle: saline", "result": "0 of 4"},
      {"measurement": "survivor count", "setting": "[7]", "result": "0 of 4"}
    ]},
    {"molecule": "CCCCCCCCCCCC(=O)Nc1ccccc1", "values": [
      {"measurement": "survivor count", "setting": "[1]", "result": "6 of 6"},
      {"measurement": "survivor count", "setting": "[8]", "result": "4 of 6"},
      {"measurement": "survivor count", "setting": "dose: 400.0 mg/kg/injection, schedule: Q01DX009 (ip), vehicle: saline", "result": "6 of 6"}
    ]}
  ]
}
